The target in the test is C-terminal region of LD, yeast two-hybrid fusion (Arabidopsis thaliana). The experiment in a line: two-hybrid; GAL4 AD (pGADT7, AH109) and BD (pGBKT7, Y187) fusions, mated; growth on SD-Leu/Trp/His, 3-amino-1,2,4-triazole to reduce background.

Consider one molecule from article PMC9303297, “Characterization of an autonomous pathway complex that promotes flowering in Arabidopsis” (Nucleic Acids Research, 2022).

Results are given in words; binding and its absence hold for the method and conditions named. Binding can be weak; no strength is given. Tags and fused reporters may be left off the sequences shown.

B1: APRF1, full-length, yeast two-hybrid fusion (protein, UniProt Q9LYK6 1-330)
chain: MSLTELDDGLVRRMAMGAVFSDFGGKIHSVGFHRTDDLLVTSSEDDSLRLFDIANAKQLKITYHKKHGTDRVCFTHHPSSLICSSRYNLESTGESLRYLSMYDNRILRYFKGHKDRVVSLCMSPINDSFMSGSLDRSVRLWDLRVNACQGILHLRGRPAVAYDQQGLVFAIAMEGGAVKLFDSRCYDKGPFDTFLVGGDTAEVNDIKFSNDGKSMLLTTTNNNIYVLDAYRGEKKCGFSLEPSQGTPIEATFTPDGKYVLSGSGDGTLHAWNIENPSEVARWENNIGVVSCLKWAPRRAMFVAASTVLTFWIPNDGESPAPADPPTDQQQ
Take B1: the binding entry is reported as “binds”.
